Experimental findings from paper PMC7575592 are described below.

By UniProt entry, the sequences of proteins in these tests, tags left out.
UniProt Q13936: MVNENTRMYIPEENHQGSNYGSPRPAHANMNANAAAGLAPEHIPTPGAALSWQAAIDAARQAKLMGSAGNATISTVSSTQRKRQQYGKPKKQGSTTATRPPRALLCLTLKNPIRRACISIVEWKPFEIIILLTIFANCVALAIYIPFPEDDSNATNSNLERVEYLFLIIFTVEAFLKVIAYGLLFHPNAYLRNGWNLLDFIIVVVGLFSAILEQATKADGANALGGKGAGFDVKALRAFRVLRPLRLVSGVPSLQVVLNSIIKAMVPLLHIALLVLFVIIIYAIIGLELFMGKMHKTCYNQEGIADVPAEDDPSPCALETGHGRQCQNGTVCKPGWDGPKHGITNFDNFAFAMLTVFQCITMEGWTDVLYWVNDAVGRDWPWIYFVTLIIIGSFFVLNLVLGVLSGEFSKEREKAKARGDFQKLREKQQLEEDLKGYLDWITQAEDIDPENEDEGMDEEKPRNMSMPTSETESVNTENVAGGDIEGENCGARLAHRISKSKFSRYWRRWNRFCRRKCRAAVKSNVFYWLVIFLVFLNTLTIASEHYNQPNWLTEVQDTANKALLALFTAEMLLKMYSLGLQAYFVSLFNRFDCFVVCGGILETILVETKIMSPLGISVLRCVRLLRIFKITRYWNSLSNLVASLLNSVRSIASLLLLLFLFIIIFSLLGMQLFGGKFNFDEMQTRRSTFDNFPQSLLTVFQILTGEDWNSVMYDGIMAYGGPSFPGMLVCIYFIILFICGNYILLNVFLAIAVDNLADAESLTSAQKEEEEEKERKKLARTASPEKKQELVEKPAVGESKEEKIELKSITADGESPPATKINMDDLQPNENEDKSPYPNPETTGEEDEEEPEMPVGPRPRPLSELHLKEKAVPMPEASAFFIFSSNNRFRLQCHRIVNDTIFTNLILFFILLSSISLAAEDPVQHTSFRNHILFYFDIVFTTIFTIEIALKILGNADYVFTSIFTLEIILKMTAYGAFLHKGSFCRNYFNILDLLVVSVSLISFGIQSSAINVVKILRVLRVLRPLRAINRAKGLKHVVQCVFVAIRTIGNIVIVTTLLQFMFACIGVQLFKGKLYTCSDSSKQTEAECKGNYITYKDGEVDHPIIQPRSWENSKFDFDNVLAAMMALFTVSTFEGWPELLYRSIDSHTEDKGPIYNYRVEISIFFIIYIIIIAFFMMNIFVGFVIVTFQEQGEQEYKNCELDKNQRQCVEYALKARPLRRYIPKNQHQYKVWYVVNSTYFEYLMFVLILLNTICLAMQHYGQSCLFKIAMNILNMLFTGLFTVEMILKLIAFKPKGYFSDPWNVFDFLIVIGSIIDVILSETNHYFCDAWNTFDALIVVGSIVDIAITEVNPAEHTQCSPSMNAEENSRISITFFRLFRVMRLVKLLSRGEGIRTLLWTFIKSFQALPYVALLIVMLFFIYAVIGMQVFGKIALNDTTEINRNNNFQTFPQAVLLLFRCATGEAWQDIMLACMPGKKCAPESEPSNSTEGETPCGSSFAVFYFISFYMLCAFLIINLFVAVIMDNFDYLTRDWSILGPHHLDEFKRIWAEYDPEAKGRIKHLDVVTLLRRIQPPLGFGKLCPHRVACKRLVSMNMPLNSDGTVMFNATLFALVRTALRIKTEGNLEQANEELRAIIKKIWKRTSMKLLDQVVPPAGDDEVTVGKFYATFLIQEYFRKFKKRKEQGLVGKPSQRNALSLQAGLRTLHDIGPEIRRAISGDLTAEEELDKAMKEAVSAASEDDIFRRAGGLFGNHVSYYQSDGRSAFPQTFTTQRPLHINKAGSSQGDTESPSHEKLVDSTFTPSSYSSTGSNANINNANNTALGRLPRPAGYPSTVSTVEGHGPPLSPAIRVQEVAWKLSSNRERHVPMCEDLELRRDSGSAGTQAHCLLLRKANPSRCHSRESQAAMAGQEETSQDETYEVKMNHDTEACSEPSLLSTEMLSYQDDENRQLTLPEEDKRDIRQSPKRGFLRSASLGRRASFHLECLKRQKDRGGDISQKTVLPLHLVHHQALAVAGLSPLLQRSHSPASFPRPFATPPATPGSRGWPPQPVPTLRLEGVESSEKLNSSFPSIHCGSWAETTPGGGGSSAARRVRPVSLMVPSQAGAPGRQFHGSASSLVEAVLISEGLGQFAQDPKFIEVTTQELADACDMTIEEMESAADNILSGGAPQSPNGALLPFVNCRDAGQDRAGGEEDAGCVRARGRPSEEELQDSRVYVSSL
UniProt O95622: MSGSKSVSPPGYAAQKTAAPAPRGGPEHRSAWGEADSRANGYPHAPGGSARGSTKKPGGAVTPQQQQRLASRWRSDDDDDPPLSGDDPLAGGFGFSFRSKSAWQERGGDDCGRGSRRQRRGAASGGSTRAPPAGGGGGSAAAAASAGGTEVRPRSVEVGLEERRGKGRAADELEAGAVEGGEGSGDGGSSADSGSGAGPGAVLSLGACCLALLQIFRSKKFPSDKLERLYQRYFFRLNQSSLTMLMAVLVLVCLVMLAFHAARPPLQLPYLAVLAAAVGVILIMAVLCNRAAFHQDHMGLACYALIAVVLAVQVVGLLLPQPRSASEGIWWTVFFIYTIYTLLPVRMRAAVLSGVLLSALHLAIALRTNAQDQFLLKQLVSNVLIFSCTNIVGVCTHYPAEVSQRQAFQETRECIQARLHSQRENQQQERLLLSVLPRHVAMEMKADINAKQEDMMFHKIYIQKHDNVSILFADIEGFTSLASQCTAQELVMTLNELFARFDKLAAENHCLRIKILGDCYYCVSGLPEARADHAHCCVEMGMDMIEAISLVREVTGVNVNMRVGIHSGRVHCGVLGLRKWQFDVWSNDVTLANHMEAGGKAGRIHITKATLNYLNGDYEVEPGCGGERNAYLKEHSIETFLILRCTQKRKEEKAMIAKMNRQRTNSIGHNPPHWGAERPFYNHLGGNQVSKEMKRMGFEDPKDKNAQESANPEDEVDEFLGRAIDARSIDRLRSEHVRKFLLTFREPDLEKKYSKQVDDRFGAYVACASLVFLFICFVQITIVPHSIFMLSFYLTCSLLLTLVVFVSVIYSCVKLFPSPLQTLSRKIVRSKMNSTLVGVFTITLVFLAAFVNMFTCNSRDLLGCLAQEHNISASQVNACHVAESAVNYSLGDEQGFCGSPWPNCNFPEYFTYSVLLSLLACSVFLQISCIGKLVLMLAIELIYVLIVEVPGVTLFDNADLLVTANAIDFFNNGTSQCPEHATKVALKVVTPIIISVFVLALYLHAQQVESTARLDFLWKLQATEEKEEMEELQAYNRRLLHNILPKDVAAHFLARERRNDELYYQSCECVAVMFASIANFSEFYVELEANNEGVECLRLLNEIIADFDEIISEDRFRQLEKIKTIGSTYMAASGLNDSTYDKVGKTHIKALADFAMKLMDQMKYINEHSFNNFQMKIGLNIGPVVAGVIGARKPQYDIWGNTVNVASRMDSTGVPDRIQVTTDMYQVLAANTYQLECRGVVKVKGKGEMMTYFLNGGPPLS
UniProt P24588: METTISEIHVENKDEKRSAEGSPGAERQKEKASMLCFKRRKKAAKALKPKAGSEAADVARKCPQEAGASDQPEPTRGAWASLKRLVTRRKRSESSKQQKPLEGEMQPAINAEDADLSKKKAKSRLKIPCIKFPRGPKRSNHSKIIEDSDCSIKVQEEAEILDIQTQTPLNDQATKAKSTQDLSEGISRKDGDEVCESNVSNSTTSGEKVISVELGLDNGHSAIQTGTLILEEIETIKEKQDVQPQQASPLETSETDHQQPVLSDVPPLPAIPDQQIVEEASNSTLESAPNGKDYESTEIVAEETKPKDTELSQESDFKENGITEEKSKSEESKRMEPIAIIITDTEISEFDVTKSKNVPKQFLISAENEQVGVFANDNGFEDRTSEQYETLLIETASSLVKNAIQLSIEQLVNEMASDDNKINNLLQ
UniProt Q01815: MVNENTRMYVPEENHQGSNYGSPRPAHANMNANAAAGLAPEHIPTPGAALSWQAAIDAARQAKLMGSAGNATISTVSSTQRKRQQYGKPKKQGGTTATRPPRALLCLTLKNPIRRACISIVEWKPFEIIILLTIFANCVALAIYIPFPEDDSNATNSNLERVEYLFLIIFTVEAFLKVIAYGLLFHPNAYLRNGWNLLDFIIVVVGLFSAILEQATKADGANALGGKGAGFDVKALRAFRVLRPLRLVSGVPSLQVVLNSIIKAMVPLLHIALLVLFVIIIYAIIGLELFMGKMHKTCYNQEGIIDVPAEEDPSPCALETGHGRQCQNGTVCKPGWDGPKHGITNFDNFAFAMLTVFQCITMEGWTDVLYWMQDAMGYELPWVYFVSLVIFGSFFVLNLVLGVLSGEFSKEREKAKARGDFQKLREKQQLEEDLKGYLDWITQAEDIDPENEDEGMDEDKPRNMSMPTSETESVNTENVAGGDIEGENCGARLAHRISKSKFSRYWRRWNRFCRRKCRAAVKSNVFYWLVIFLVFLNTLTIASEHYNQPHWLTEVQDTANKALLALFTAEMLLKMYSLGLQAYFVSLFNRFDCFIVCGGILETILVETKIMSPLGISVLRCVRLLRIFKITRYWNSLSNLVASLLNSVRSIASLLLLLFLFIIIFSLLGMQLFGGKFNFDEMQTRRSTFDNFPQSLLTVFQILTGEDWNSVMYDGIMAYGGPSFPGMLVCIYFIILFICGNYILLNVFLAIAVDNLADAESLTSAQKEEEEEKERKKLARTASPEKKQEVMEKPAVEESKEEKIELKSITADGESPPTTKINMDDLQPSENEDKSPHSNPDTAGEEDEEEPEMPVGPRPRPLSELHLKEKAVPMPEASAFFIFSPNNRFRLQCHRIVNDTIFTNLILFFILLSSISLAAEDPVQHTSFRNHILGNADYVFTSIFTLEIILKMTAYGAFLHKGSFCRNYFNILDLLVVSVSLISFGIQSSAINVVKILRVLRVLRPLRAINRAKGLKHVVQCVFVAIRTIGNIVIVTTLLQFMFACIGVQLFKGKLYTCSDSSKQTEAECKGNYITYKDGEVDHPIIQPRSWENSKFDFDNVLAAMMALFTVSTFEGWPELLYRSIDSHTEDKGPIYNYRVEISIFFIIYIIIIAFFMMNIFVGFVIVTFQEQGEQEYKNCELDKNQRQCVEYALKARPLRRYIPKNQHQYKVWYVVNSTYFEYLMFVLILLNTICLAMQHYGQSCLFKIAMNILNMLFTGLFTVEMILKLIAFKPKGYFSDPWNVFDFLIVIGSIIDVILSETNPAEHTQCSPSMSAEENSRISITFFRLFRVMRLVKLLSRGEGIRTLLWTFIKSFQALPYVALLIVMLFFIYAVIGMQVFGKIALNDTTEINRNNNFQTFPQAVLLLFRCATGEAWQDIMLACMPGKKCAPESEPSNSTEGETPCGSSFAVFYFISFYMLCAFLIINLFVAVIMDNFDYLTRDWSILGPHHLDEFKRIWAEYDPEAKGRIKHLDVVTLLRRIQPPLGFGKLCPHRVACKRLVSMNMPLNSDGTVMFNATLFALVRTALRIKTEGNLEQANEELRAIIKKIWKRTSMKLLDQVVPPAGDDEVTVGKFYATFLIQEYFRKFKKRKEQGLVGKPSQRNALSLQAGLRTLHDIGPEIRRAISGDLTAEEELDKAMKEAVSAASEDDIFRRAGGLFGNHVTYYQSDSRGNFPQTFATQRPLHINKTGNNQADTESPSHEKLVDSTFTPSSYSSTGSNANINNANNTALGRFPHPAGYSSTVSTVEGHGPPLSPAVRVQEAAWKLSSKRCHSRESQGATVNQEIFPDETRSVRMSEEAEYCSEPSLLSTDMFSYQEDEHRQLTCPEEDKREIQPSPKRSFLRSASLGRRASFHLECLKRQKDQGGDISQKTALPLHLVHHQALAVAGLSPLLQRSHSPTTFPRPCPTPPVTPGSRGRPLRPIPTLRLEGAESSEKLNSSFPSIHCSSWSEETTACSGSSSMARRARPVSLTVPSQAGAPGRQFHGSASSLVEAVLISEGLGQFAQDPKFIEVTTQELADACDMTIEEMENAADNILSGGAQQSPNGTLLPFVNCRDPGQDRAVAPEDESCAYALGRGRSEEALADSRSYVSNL

These are yes or no findings as the source states them, for the method shown. In cells and extracts the contact can be indirect. Some binding calls cover weakened binding; strength is not graded here.

In experiment [1] the target is L-type Ca2+ channel CaV1.2, human (human (endogenous in adipose arterial myocytes)) (UniProt Q13936). Put plainly: proximity ligation; Duolink in situ PLA on freshly dissociated human male and female adipose arterial myocytes, fixed with 3% glyoxal and permeabilised; two primary antibodies; signal when proteins are within 40 nm; puncta per cell area.
Experiment [2] concerns the target T1, P2Y11 receptor, human (human (endogenous in adipose arterial myocytes)) (UniProt Q96G91).
T1 sequence: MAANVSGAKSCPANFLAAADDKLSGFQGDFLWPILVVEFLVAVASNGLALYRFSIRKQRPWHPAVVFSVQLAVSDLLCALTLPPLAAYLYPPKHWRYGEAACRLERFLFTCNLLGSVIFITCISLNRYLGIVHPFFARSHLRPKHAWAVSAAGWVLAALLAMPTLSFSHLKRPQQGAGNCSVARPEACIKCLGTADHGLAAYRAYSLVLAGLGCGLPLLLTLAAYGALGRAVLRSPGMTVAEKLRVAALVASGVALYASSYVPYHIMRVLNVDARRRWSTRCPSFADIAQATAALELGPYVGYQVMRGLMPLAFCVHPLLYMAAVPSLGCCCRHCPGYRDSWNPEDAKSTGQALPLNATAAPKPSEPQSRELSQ
Described as above.

Experiment [3] has as its target adenylyl cyclase 5 (AC5), human (human (endogenous in adipose arterial myocytes)) (UniProt O95622). The experiment is described as above.
For experiment [4], the target named is T2, A-kinase anchoring protein 5 (AKAP5), mouse (mouse (endogenous in cerebral arterial myocytes)) (UniProt D3YVF0).
T2 sequence: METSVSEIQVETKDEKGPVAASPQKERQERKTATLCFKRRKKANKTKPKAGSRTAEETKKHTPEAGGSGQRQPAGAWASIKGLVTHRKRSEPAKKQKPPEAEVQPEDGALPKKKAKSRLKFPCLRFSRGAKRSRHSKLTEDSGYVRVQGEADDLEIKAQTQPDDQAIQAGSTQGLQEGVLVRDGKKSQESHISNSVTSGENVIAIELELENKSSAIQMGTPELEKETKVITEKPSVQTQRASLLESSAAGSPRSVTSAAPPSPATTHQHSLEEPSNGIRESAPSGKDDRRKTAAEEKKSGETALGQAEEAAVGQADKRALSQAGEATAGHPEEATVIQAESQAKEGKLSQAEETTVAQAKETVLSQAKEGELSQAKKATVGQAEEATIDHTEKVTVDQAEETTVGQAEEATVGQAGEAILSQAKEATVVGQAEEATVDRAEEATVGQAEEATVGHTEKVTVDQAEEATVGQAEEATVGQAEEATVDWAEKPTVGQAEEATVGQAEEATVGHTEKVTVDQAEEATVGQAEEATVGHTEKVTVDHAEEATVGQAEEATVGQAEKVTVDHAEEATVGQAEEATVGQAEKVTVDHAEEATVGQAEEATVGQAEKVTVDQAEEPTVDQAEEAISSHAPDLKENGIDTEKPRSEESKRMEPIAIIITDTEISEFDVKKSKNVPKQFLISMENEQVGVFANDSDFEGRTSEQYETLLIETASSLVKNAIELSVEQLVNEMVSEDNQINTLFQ
Put plainly: proximity ligation; Duolink in situ PLA on freshly dissociated cerebral arterial myocytes of wild-type and AKAP5-/- mice, fixed with 3% glyoxal and permeabilised; two primary antibodies; signal when proteins are within 40 nm; puncta per cell area.

In the case of “A-kinase anchoring protein 5 (AKAP5), human (from UniProt P24588 1-427)”, the binding result in experiment [1], in experiment [2] and in experiment [3] was “binds” throughout.
For the substance “L-type Ca2+ channel CaV1.2, mouse (from UniProt Q01815 1-2139)”, the binding result in experiment [4] is “binds”.
In the case of “adenylyl cyclase 5 (AC5), mouse (from UniProt P84309 1-1262) (enzyme)”, the binding result in experiment [4] is reported as “binds”.
